Experimental data: PMC9045647
No constants are given. Whether binding was seen depends on the method and setting. Binding seen in cells or lysates may run through a third protein. For some of these results: Sequences can lack the tags named with a protein.

Tests used:
Assay in all cases: split reporter
[1] = target: T1, Mtb SufT (Rv1466), wild type, fused to an mDHFR fragment for M-PFC (Mycobacterium tuberculosis) (UniProt O53157)
T1 sequence: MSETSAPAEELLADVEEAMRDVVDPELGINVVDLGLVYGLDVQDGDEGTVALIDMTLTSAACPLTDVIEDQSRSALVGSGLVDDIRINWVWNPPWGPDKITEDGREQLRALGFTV

[2] = target: Mtb aconitase (Acn) fused to mDHFR fragment F[1,2] (Mycobacterium tuberculosis) (UniProt O53166)
[3] = target: T2, Mtb SufR (Rv1460) fused to mDHFR fragment F[1,2] (Mycobacterium tuberculosis) (UniProt O53151)
T2 sequence: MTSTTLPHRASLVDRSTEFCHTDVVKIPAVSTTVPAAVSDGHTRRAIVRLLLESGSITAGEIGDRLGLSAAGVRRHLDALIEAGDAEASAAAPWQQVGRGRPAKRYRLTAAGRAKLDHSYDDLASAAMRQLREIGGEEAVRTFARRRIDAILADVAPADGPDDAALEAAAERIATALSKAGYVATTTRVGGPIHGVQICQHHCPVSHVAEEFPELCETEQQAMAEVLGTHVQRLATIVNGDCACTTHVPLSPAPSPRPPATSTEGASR

[4] = target: Mtb SufS (Rv1464) fused to mDHFR fragment F[1,2] (Mycobacterium tuberculosis) (UniProt P9WQ69)

Measured: binding

Mtb SufT C62A fused to mDHFR fragment F[3] (from UniProt O53157 1-115)
no binding: [1] | [2] | [3] | [4]
